From the supplement of paper PMC3334620
In all, about 33,000 sequences were measured (“E-score (-0.5 to 0.5)”: median about -0.015, highest 2% from about 0.3 on). Some of the results follow.

target: T1, Abf1 (UniProt P14164); assay: PBM E-score (8-mer binding enrichment) (E-score (-0.5 to 0.5)); higher = stronger / more preferred TF binding; details: protein concentration: 200 nM; construct: GST-full length
T1 sequence: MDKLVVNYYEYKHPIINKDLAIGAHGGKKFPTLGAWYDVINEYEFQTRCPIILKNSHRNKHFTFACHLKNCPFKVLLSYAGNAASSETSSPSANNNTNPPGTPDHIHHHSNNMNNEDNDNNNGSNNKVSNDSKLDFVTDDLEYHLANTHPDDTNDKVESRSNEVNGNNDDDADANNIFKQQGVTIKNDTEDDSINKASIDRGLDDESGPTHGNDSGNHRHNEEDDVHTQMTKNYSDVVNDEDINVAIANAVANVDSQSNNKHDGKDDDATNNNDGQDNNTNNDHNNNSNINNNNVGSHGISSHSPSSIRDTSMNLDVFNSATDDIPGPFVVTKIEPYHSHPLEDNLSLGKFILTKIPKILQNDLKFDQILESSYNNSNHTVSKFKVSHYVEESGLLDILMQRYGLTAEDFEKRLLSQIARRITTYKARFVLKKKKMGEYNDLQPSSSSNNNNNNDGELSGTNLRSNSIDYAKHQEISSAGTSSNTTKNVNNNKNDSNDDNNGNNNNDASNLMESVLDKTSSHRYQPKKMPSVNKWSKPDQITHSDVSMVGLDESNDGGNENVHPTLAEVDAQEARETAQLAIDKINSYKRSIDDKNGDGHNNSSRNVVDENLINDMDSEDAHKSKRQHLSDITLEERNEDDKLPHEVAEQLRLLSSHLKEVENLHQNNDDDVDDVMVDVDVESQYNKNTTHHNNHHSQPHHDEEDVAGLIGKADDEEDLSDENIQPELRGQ
Outline: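 The E-score, a modified Wilcoxon-Mann-Whitney statistic, was computed by the Universal PBM Analysis Suite for every ungapped eight-base word pooled with its reverse complement. Scans behind it were normalised with masliner after bound GST-tagged yeast transcription factors were detected with fluorescent anti-GST. The proteins, at about 100-200 nM, had been applied to universal all-10-mer Agilent arrays made double-stranded by primer extension.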

| Sequence | PBM E-score |
| --- | --- |
| CGTCCCAA | 0.252 |
| CAGTTCAG | -0.126 |
| AAAATTAC | 0.0976 |
| ATGAAAAT | 0.148 |
| ATGGCCAC | -0.203 |
| TAAGAGGA | -0.136 |
| GTTGAAAA | 0.194 |
| AAGGCGAG | -0.0978 |
| CCGTCTAA | 0.266 |
| CTGTAAGA | -0.0346 |
| GTATGCAA | 0.0172 |
| ATAAACAT | 0.145 |
| GAATTGGC | -0.16 |
| CTGAAGAA | -0.224 |
| CTCACCAC | -0.0754 |
| TAACCTAA | 0.117 |
| AACCGGTA | -0.163 |
| ACCGTGTA | 0.0532 |
| CAATCCAC | 0.0198 |
| TAAGCTGA | -0.0181 |
| ATCGAATA | -0.0208 |
| AGCTGCCT | -0.236 |
| TAAATTCA | 0.0731 |
| CCACCAGA | -0.18 |
| GTACATCA | 0.217 |

| Sequence | PBM E-score |
| --- | --- |
| TCATATAA | 0.128 |
| AGCTTTAG | -0.274 |
| CCTTGGGC | -0.213 |
| CTCTAGAA | -0.204 |
| GGGAGAGA | 0.0241 |
| GTCGAAGA | -0.0269 |
| GGGCACAA | -0.353 |
| ACGGTCCG | 0.141 |
| GCGTGTAA | -0.014 |
| CGCCCTAC | -0.105 |
| AACAACTC | -0.0812 |
| CGTAGACG | 0.179 |
| CGACGTAC | 0.322 |
| ACGTCGAG | -0.22 |
| GAACGTGC | -0.1 |
| GAGAGTGC | -0.192 |
| CCCATTAG | -0.263 |
| ATATGAGA | 0.0636 |
| ACTAATTG | -0.0772 |
| GGCAAACA | -0.106 |
| CCAGATCC | -0.232 |
| CGTGCAAA | 0.337 |
| AGCCACTA | -0.0236 |
| CGGTCATC | 0.107 |
| AAAATGGG | -0.18 |

| Sequence | PBM E-score |
| --- | --- |
| CACATTAC | 0.033 |
| AGCTCGGC | -0.0707 |
| AGCTACTC | -0.159 |
| GCTACATA | 0.068 |
| CCACGACC | 0.0399 |
| CACTATAG | 0.158 |
| GAGAAGGA | -0.18 |
| ATATCCTA | 0.0561 |
| ACGTGCGG | 0.135 |
| CTCTTCTA | -0.157 |
| GAATCTCA | -0.0291 |
| CTCAGATC | 0.0461 |
| GAAGGTAA | 0.0515 |
| GGATTTAC | 0.189 |
| CCCCACGG | 0.0587 |
| ACGCCGTC | 0.282 |
| AAGAACTG | -0.114 |
| ACTAATGC | -0.0123 |
| ATACGCAC | 0.183 |
| ATCGTCCA | 0.221 |
| GGCGTCGA | 0.0198 |
| AGCCTGAT | -0.0304 |
| CTCAGACA | -0.208 |
| AATCATTG | 0.0452 |
| CCGACCTC | -0.137 |

| Sequence | PBM E-score |
| --- | --- |
| TGTGGGAA | -0.13 |
| CAGGCTCA | -0.112 |
| GGTGATCA | 0.305 |
| AAGCTCCC | -0.286 |
| GGTTATGA | 0.0101 |
| GCCCCGAC | -0.225 |
| CGTACACC | -0.0081 |
| GGCTAAGA | -0.0881 |
| AACCAGTT | 0.0799 |
| AGCGCCGG | -0.136 |
| ACGGAGTA | 0.1 |
| AGACATTG | -0.0332 |
| TACTGAAA | 0.0645 |
| AGCCTCGG | -0.297 |
| ACGCGCGT | 0.137 |
| AAAGGGCT | -0.253 |
| AGATGTCA | 0.205 |
| ACGTACAC | 0.0407 |
| TATTATAA | 0.121 |
| CCACAGGA | -0.0541 |
| AAGAGCCC | -0.0624 |
| TACACCAA | -0.128 |
| CCAAAACG | 0.232 |
| ACAGTTTC | 0.0669 |
| ATGTCGGC | 0.0555 |

| Sequence | PBM E-score |
| --- | --- |
| TACCAAGA | -0.123 |
| CCCCAGCA | -0.104 |
| GCAGTTGA | -0.0583 |
| AACTGCCC | 0.0127 |
| TCGCAGAA | -0.114 |
| AGGCCACT | -0.22 |
| AATAGTCT | -0.0664 |
| ATTCCCTA | 0.0118 |
| AAGCGCCA | -0.247 |
| CCTTTTCA | -0.0525 |
| CACCCGAC | 0.00856 |
| CTGGCGTC | -0.238 |
| ACTTCAAT | 0.0336 |
| ATTGTTGC | -0.0414 |
| AGTCCAAA | -0.153 |
| AAAGCGCA | -0.169 |
| CTAAAATA | 0.161 |
| AAATAATC | 0.131 |
| ACGCGTTC | -0.0896 |
| TGGGCAAA | -0.166 |
| CGACTCCG | -0.231 |
| CCACGAAA | 0.216 |
| CCCTCCCG | -0.229 |
| GAGCCATC | -0.0884 |
| ACTCGGCC | -0.00517 |

| Sequence | PBM E-score |
| --- | --- |
| AACTCCCG | -0.0344 |
| TTACTCAA | 0.112 |
| CATGCCAA | -0.107 |
| ATGAAAGA | 0.0905 |
| ATGCATAC | 0.0289 |
| CTTCCCCC | -0.428 |
| CCGGACGC | -0.0656 |
| ACAAAACA | 0.00481 |
| AGCCATAG | -0.0419 |
| AGTGGTGA | 0.131 |
| GTTAGTAA | 0.0844 |
| AAGACTTG | 0.0186 |
| AGTTGCAG | -0.139 |
| ATGTAGTG | 0.17 |
| CTCACAGA | -0.031 |
| GTTATAAA | 0.0225 |
| ACTTGATA | 0.227 |
| CTGCGCCC | -0.16 |
| CCTTTACC | -0.282 |
| CGATTGCG | -0.219 |
| AAGTAATG | -0.0501 |
| AAGCGATA | 0.256 |
| CGGACGGC | 0.259 |
| AATGCTAG | -0.155 |
| AGTTCGCC | -0.0547 |

| Sequence | PBM E-score |
| --- | --- |
| ATGTGGCA | -0.123 |
| CAACTCTA | -0.28 |
| CGGAGATC | -0.0599 |
| CGCTACAA | 0.00214 |
| ACCTTATG | -0.0573 |
| GTCAATAA | 0.0223 |
| TATGATGA | 0.313 |
| AGATCTAC | -0.0302 |
| ATAGATGC | -0.223 |
| CAGTCGGA | -0.147 |
| AAGTTTTG | -0.177 |
| CGAAACGA | 0.172 |
| GCGGGCGA | -0.0255 |
| CTGAGTGC | -0.123 |
| CTTGGTTA | 0.0127 |
| CTACTAAA | -0.0406 |
| GACCCGTA | 0.0251 |
| CCGGGCCA | -0.27 |
| ATAAATAC | 0.278 |
| GTAAAGCA | 0.119 |
| TCCTTCGA | 0.0552 |
| ATAAGGTA | -0.0483 |
